The test system of this data set is Nalm-6 cytoplasmic and membrane associated proteins. Nature of the data set: CHIEF against subcellular fractions of Nalm-6 leukemia cells. It is filed as binding. An excerpt: Abbreviations: φ=No peptide added at anode; MBPWT1, MBP100-117_WT1 117-134; MBP, MBP100-117; WT1, WT1 117-134. […] The arrowheads in lanes 2, 6, 10 (top), 14 and 18 (top) indicate expected CHIEF complex focusing near the 6.8 pl marker. The arrowheads in lanes 10 (bottom) and 18 (bottom) indicate the appearance of a CHIEF complex focusing near the 7.4 pl marker. The arrowheads in lane 5 and 19 (top and bottom) indicate where there has been cross over of the MBP117-134WT1 peptide into an adjacent lane causing a drive-by or swipe CHIEF complex formation (lane 5, lane 19).
Three identical lanes were prepared for the generation of CHIEF complexes between MBP100-117WT1 117-134 (80 μg) and 10 μg of Nalm-6 membrane associated proteins.
The example investigates the possibility that the bMBPWT1 peptide binds HSPs directly from cell lysates in a similar manner to when single recombinant HSP was used as a counter ion. Cancer cells are addicted to the overexpression of HSPs to support growth under poor environmental conditions, to facilitate the function of otherwise unstable oncoproteins and the ablation of apoptosis. Most, if not all, cancer cells should provide a rich source of human HSPs to serve as complex forming counter migrants for the MBP peptide co-synthesised with WT1 and SW peptides. To investigate this possibility, subcellular fractions enriched in cytoplasmic proteins (extraction buffer 1) and membrane associated proteins (extraction buffer 2) were prepared from a leukemia cell line, Nalm-6, and a breast cancer cell line, MDA MB231 (FIG. 7). The individual MBP and WT1 peptides were also included as potential counter migrants.
Bands representing counter migrant complexes typical of the pl ˜6.8 and pl ˜7.4 observed in FIG. 7 were excised by scalpel. The gel pieces were boiled in Laemmli buffer and resolved by SDS-PAGE (FIG. 8 a-b). In the manner previously described for the detection of proteins binding to corynebacterial HSP70, it was anticipated that binding partners of the bMBPWT1 peptide would become denatured and migrate into the SDS-PAGE gel. […]

The mark [1] stands for this setting: Nalm-6 membrane associated proteins, second dimension SDS-PAGE.

Take “MBPWT1: MBP peptide 100-117 co-synthesised with Wilms tumor protein 1 peptide 117-134 (PSQGKGRGLSLSRFSWGAPSQASSGQARMFPNAPYL)”: the “focusing position (pI marker) of CHIEF complex with Nalm-6 membrane associated fraction” value (80 μg peptide, 10 μg subcellular fraction) is listed as ~7.4. Also, under setting [1], the “proteins identified by mass spectrometry in the counter migrant complex focusing near 6.8” value is “HSP90, HSP60, calreticulin, 14-3-3 zeta and calmodulin”; the “proteins identified by mass spectrometry in the counter migrant complex focusing near pI 7.4” value was “HSP90 (both cytoplasmic and gp96 isoforms), and at least 20 other proteins that were not heat shock proteins”.

The record behind these values is US8956878B2, “Polypeptides with affinity for heat shock proteins (HSPS) and HSP associated complexes (HACS) and their use in diagnosis and therapy” (Atlantic Cancer Research Institute, priority 2011, dated 2015).
